Taken from: PubChem BioAssay AID1671195 (Yale University, 2021)

Test: 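Genes whose knockdown alters LDL uptake in liver cancer cells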 (primary screen)
Cell system: human Huh7 hepatoma cells
Reagent: siRNA pool against human genes, 18 nM
Duration: about 2 to 2.5 days of knockdown, then 8 h LDL uptake
Treatment: DiI-labelled LDL at 30 µg/ml for 8 h, in lipoprotein-deficient serum medium
Detection: 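Fluorescent LDL signal imaged in cells, scaled to the plate median, robust z-score for each replicate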
Direction: robust z-score: higher = more LDL uptake after knockdown
Call rule: 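a gene counts as active if at least two replicate z-scores exceed ±2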
The deposit covers about 22,000 reagents; shown is a part drawn at random. About 1,510 of them (6.9%) count as active. 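Active includes knockdowns raising or lowering LDL uptake; positive z-scores mean more uptake, negative mean less.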

XK gave robust z-score, replicate 1 = -0.124; robust z-score, replicate 2 = -1.42; robust z-score, replicate 3 = -0.278; inactive.
Silencing of CES5A gave: robust z-score, replicate 1 = 0.0504; robust z-score, replicate 2 = 0.484; robust z-score, replicate 3 = 0.838; inactive.
MTHFD2 showed robust z-score, replicate 1 = -0.887; robust z-score, replicate 2 = -0.832; robust z-score, replicate 3 = -0.905; inactive.
After knock-down of SGCB the results were robust z-score, replicate 1 = 0.924; robust z-score, replicate 2 = 0.347; robust z-score, replicate 3 = 0.172; inactive.
Silencing of OOEP gave: robust z-score, replicate 1 = 0.614; robust z-score, replicate 2 = 0.503; robust z-score, replicate 3 = 0.486; inactive.
Depletion of LOC389858 (retired record) resulted in: robust z-score, replicate 1 = 0.026; robust z-score, replicate 2 = -0.158; robust z-score, replicate 3 = -0.0571; inactive.
Depletion of ACY1 gave: robust z-score, replicate 1 = -0.216; robust z-score, replicate 2 = -0.398; robust z-score, replicate 3 = 0.256; inactive.
With knock-down of PABPN1, the screen gave robust z-score, replicate 1 = 0.11; robust z-score, replicate 2 = -0.606; robust z-score, replicate 3 = 0.0649; inactive.
With knock-down of GNG2 the results were robust z-score, replicate 1 = 1.36; robust z-score, replicate 2 = 1.06; robust z-score, replicate 3 = 0.864; inactive.
Silencing of FSCN1 resulted in: robust z-score, replicate 1 = -0.0487; robust z-score, replicate 2 = 1.84; robust z-score, replicate 3 = 0.407; inactive.
Knock-down of CFAP57 came out at: robust z-score, replicate 1 = -0.261; robust z-score, replicate 2 = 0.687; robust z-score, replicate 3 = 0.0448; inactive.
For PA2G4, the entry reads robust z-score, replicate 1 = -0.914; robust z-score, replicate 2 = -1.6; robust z-score, replicate 3 = -0.515; inactive.

An excerpt from the list above:
CES5A: robust z-score, replicate 1 = 0.0504; robust z-score, replicate 2 = 0.484; robust z-score, replicate 3 = 0.838; Outcome = inactive
MTHFD2: robust z-score, replicate 1 = -0.887; robust z-score, replicate 2 = -0.832; robust z-score, replicate 3 = -0.905; Outcome = inactive
SGCB: robust z-score, replicate 1 = 0.924; robust z-score, replicate 2 = 0.347; robust z-score, replicate 3 = 0.172; Outcome = inactive

Further reagents follow.
Depletion of NSUN4 gave: robust z-score, replicate 1 = -0.757; robust z-score, replicate 2 = -0.306; robust z-score, replicate 3 = -0.635; inactive.
USP25 scored robust z-score, replicate 1 = 0.556; robust z-score, replicate 2 = 0.0386; robust z-score, replicate 3 = 1.37; inactive.
After knock-down of ZC3H10, the screen gave robust z-score, replicate 1 = 0.826; robust z-score, replicate 2 = -0.187; robust z-score, replicate 3 = 1.16; inactive.
Silencing of LOC440988 (retired record) came out at: robust z-score, replicate 1 = 0.819; robust z-score, replicate 2 = 0.542; robust z-score, replicate 3 = 0.151; inactive.
Knock-down of UGT3A1 resulted in: robust z-score, replicate 1 = 0.324; robust z-score, replicate 2 = -0.399; robust z-score, replicate 3 = -0.162; inactive.
OTUD6B gave robust z-score, replicate 1 = -2.06; robust z-score, replicate 2 = -0.438; robust z-score, replicate 3 = -1.46; inactive.
BEGAIN showed robust z-score, replicate 1 = -1.82; robust z-score, replicate 2 = -0.377; robust z-score, replicate 3 = 0.376; inactive.
Knock-down of LOC388593 (retired record) came out at: robust z-score, replicate 1 = 0.0372; robust z-score, replicate 2 = 0.506; robust z-score, replicate 3 = 0.191; inactive.
Depletion of DCTN2 came out at: robust z-score, replicate 1 = 0.347; robust z-score, replicate 2 = 0.152; robust z-score, replicate 3 = -0.31; inactive.
For LOC400572 (retired record), the entry reads robust z-score, replicate 1 = 1.75; robust z-score, replicate 2 = 1.24; robust z-score, replicate 3 = 1.43; inactive.
GPR153 scored robust z-score, replicate 1 = 0.602; robust z-score, replicate 2 = 0.453; robust z-score, replicate 3 = 0.571; inactive.
With knock-down of CCR1 the results were robust z-score, replicate 1 = 1.48; robust z-score, replicate 2 = 1.33; robust z-score, replicate 3 = 1.22; inactive.
After knock-down of RRP9 the results were robust z-score, replicate 1 = 2.24; robust z-score, replicate 2 = -0.105; robust z-score, replicate 3 = 0.56; inactive.
After knock-down of IFT122, the screen gave robust z-score, replicate 1 = -1.04; robust z-score, replicate 2 = -1.22; robust z-score, replicate 3 = -1.13; inactive.
With knock-down of LOC442274 (retired record), the record shows robust z-score, replicate 1 = 2.17; robust z-score, replicate 2 = 2.5; robust z-score, replicate 3 = 2.34; active.
For FTL, the values are robust z-score, replicate 1 = 1.96; robust z-score, replicate 2 = 0.412; robust z-score, replicate 3 = 1.08; inactive.
FGFR1 gave robust z-score, replicate 1 = 0.353; robust z-score, replicate 2 = 0.88; robust z-score, replicate 3 = -0.31; inactive.
With knock-down of CFAP210, the screen gave robust z-score, replicate 1 = 0.355; robust z-score, replicate 2 = 1.74; robust z-score, replicate 3 = -0.0635; inactive.
